This assay addresses T1, Slr0149 with a green fluorescent protein (GFP) at its C-terminus (Synechocystis sp. PCC 6803) (UniProt P74448).
T1 sequence: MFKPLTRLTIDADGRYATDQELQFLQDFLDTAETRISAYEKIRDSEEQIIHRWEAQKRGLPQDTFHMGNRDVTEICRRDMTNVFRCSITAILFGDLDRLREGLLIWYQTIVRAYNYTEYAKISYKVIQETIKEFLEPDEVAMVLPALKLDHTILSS
Put plainly: affinity purification with mass spectrometry; lysate with the C-terminally GFP-tagged bait; anti-GFP antibody (ab290) on Protein A MagBeads; sample detected by MS.

No constants are given. Whether binding was seen depends on the method and setting. In cells and extracts the contact can be indirect. A yes stands for co-enrichment or nearness to the bait. Other partners may have been found. Tags and fused reporters may be left off the sequences shown.

With Slr0144, the binding entry was “binds”.

With Slr0145, the binding entry is listed as “binds”.

With Slr0147, the binding result is given as “binds”.

Consider Slr0148, for which the binding entry was “binds”.

B1: Slr0146 (protein, UniProt P74445 1-170)
chain: MQKDFERLFHRAEDHYLQPPEIISFHKQLGLMRERLSAYRLLRDNEIVIFQAIADRLEEEFSNVPATQLQQALLHWISVLRYGAMAMLLSNPEYLQYRLLEWLEGMVQAHDLLAIEIRLSALLKEQLESLLGGPQYRLLEPFLVQADQTILGQAPAAVAEEEAEMMTLGE
On to B1, for which the binding entry is on record as “binds”.
